Reference: patent EP3071301B1, “QUERCUS PLANT EXTRACT AS ACTIVE AGENT WITH SKIN ANTI-AGEING PROPERTIES AND COSMETIC COMPOSITIONS CONTAINING IT” (Charlois Cosmetiques, priority 2013, dated 2015)

Assays:
[1] = Hydrogen peroxide assay (Amplex Red Hydrogen Peroxide/Peroxidase kit); conditions: 50 µM
Excerpt: Le principe actif E2 conforme à l'invention est soumis au test suivant, à des concentrations de 0,1; 0,3; 0,5; 1; 3 % p/p (% en poids de principe actif à tester, par rapport au poids final de milieu contenant le principe actif).
L'essai est réalisé au moyen du kit de dosage Amplex® Red Hydrogen Peroxyde/Peroxydase Assay Kit (Molecular Probes®), dont le réactif 10-acétyl-3,7-dihydroxyphénoxazine est utilisé pour déterminer la quantité de peroxyde d'hydrogène présent. Le substrat non coloré réagit avec le peroxyde d'hydrogène (H2O2) dans un rapport stoechiométrique 1:1 pour produire de la résofurine hautement fluorescente. […]
Le principe actif selon l'invention et le BHA (3-tert-butyl-4-hydroxyanisole), en tant que témoin, à une concentration de 50 µM, sont incubés en présence d'H2O2, de réactif Amplex® Red et d'enzyme Horse Radish Peroxydase (HRP) pendant 30 min à température ambiante. Puis la fluorescence est mesurée, pour une longueur d'onde d'excitation de 540 nm et une longueur d'onde d'émission de 590 nm.
Des contrôles d'auto-fluorescence et d'absorption de fluorescence (quenching) sont aussi réalisés pour chaque concentration de principe actif selon l'invention et du témoin. Les contrôles d'absorption de fluorescence sont réalisés en incubant le peroxyde d'hydrogène (H2O2), le réactif Amplex® Redet l'enzyme HRP pendant 30 min. […]

MMP totales = experiment: Total matrix metalloprotease (MMP) activity inhibition, fluorogenic peptide; type: biochemical, humains; conditions: quenching control
Excerpt: Le principe actif E2 conforme à l'invention est soumis au test suivant, à des concentrations de 1 et 3 % p/p, selon le protocole décrit dans la publication de Sim et al., 2007, Arch Pharm Res, 30(3): 290-298.
Les MMP totales (obtenues selon un protocole standard à partir de surnageants de fibroblastes dermiques humains normaux, irradiés avec des UVB (20 mJ/cm^2)) sont traitées par le mélange inflammatoire acétate de phorbol myristate (PMA) et facteur de nécrose tumorale (TNFα).
Le substrat fluorescent est le peptide fluorogénique décrit dans la publication de Lee et al., 1999, Annals of the New York Academy of Sciences, 878: 635-637, et commercialisé sous la référence M6412 par la société Sigma-Aldrich.
Le principe actif E2 conforme à l'invention ou le témoin (O-phénantroline testée à 0,03; 0,1; 0,3 et 1 mM) sont préincubés pendant 10 min sur glace en présence des MMP totales activées, puis le substrat fluorescent est ajouté. Les plaques ont été incubées pendant 3h à 37°C. Un contrôle d'interférence du composé (composé en présence du mélange réactionnel sans enzyme) et un contrôle « quenching » (mélange réactionnel contenant le substrat et l'enzyme dans lequel le composé n'est ajouté qu'en fin d'incubation) ont été réalisés en parallèle. Le contrôle […] permet de vérifier l'absorption non spécifique de la fluorescence par le composé et donc la spécificité de l'inhibition observée dans la condition test correspondante.
Chaque expérience est tripliquée.
A la fin de l'incubation, la fluorescence produite suite à la dégradation du substrat est mesurée par fluorimétrie pour une longueur d'onde d'excitation de 328 nm et une longueur d'onde d'émission de 393 nm, au moyen du dispositif SpectroMax Gemini, Molecular Devices.
Le % d'inhibition des MMPs totales est calculé pour chaque échantillon testé. Les résultats obtenus sont montrés dans le tableau 6 ci-après. Tableau 6 - Inhibition de l'activité des MMP totales par le principe actif E2 conforme à l'invention

Row | SMILES | Intensité de fluorescence (UA) ([1]; fluorescence absorption (quenching) control) | % quenching ([1]; quenching control) [%] | Quenching (%) (MMP totales; 0,1 mM) | Quenching (%) (MMP totales; 0,03 mM) | Quenching (%) (MMP totales; 0,3 mM) | Quenching (%) (MMP totales; 1 mM)
1 | COc1ccc(O)c(C(C)(C)C)c1 [BHA, 3-tert-butyl-4-hydroxyanisole] | 3007 | 1 |  |  |  | 
2 | c1cnc2c(c1)ccc1cccnc12 [O-Phénanthroline] |  |  | 7 | 3 | 11 | 27
